# Measured values from paper PMC6273473 (Molecules, 2016).
# Test system: P-gp (MDR1)
# Assay: in vitro
# Conditions: dog, MDCK-MDR1, pH 7.4
smiles,measurement,value
"CN1C(=O)CN=C(c2ccccc2)c2cc(Cl)ccc21 [diazepam, reference compound]","Papp B→A at 120 min, 75 µM",123 nm/s
